# Results taken from the supplement of paper PMC12067093, “Discovery and optimisation of a covalent ligand for TRIM25 and its application to targeted protein ubiquitination” (Chemical Science, 2025).
# Amino acid sequences for entries named in this document (tags omitted). A change or cut given only in a name is not applied to a line headed by its entry.
# UniProt P55265: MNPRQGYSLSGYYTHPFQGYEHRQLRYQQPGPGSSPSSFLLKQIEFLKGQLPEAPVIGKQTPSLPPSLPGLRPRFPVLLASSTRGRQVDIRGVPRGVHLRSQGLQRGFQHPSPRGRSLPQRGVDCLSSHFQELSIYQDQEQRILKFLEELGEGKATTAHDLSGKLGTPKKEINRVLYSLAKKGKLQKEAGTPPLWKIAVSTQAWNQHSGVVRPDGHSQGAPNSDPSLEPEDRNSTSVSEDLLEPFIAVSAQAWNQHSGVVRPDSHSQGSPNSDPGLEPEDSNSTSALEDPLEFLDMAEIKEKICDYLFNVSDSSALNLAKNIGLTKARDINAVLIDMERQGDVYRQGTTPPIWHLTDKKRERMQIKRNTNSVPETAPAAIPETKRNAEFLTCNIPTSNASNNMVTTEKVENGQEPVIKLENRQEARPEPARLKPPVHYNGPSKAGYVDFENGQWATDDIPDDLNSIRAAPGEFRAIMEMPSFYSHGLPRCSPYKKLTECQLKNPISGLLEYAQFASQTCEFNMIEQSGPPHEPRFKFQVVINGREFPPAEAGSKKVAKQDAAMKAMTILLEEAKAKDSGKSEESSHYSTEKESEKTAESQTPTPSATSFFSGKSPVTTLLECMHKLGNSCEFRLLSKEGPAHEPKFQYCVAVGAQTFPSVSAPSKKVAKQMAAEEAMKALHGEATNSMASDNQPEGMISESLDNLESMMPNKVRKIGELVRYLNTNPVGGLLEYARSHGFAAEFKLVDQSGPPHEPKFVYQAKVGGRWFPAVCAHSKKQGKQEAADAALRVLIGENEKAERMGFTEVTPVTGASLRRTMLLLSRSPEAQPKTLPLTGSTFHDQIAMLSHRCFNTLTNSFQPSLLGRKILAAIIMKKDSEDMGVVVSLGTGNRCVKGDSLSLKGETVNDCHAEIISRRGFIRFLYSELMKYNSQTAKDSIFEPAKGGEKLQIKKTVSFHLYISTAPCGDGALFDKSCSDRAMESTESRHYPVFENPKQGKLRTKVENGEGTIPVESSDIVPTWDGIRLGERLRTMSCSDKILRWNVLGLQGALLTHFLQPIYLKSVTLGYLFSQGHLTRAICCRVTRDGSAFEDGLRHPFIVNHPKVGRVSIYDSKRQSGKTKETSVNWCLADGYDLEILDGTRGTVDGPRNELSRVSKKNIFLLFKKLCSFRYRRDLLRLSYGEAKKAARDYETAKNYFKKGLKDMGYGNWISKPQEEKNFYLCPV
# UniProt Q9ULC5: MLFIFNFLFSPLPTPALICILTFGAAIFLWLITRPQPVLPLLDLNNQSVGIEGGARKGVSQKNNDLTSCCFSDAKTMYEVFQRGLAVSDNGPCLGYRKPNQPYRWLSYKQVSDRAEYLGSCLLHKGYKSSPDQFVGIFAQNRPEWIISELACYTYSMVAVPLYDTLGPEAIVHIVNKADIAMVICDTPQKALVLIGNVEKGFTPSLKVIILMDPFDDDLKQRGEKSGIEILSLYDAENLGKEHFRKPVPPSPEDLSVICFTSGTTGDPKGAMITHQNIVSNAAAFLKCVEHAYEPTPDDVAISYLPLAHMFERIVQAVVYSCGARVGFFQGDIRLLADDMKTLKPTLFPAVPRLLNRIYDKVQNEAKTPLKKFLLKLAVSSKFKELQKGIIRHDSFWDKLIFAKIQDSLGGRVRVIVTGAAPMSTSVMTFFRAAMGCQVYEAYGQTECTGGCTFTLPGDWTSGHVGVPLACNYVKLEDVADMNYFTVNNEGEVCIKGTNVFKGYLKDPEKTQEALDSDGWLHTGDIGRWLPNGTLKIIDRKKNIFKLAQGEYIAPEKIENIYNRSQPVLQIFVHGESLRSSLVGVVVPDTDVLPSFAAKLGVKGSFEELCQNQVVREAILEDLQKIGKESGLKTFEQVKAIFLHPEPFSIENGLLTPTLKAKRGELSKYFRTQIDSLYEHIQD
# UniProt O95573: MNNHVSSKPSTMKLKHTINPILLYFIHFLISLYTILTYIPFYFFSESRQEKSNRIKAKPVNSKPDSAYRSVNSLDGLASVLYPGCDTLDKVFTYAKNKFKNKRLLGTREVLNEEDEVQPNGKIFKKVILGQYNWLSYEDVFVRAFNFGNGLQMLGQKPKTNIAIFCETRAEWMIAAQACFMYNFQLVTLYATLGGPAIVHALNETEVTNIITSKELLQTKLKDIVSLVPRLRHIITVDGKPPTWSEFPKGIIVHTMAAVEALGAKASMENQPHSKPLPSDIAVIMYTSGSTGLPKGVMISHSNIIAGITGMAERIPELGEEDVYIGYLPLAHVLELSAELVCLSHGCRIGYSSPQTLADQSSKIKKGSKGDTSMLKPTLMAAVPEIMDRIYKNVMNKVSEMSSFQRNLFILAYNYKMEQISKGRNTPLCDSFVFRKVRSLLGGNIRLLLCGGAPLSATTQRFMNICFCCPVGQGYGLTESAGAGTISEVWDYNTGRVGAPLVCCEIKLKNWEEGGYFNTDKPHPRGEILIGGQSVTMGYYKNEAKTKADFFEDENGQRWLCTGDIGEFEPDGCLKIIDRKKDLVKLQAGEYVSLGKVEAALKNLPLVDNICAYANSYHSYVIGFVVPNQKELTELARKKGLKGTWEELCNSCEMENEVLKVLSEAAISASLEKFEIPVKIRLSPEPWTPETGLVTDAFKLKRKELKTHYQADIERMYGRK
# UniProt Q16186: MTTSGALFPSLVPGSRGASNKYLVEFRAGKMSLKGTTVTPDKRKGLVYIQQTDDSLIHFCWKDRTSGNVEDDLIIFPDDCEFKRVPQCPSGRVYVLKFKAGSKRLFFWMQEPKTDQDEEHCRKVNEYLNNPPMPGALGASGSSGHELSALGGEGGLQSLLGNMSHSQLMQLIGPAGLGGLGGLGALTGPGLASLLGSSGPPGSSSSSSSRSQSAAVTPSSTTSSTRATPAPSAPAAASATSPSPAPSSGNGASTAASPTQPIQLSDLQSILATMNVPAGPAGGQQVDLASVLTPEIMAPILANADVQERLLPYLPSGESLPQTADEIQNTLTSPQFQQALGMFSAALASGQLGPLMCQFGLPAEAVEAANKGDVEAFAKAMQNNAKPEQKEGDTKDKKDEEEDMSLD
# UniProt P52594: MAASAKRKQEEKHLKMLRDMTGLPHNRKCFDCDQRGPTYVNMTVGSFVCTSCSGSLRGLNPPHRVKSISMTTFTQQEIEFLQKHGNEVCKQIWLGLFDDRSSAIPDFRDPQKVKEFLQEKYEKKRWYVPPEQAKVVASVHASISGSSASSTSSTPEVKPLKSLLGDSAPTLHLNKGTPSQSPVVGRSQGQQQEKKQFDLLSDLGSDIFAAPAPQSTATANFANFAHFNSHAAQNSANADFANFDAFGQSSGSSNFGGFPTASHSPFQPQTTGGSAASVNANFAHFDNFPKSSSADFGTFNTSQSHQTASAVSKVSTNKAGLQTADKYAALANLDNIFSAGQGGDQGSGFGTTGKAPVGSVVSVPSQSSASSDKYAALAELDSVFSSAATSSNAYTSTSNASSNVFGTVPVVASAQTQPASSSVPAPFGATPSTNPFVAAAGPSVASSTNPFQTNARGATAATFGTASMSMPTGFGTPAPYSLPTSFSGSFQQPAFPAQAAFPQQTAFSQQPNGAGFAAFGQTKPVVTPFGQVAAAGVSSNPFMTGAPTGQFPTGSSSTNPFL
# UniProt Q9Y4W6: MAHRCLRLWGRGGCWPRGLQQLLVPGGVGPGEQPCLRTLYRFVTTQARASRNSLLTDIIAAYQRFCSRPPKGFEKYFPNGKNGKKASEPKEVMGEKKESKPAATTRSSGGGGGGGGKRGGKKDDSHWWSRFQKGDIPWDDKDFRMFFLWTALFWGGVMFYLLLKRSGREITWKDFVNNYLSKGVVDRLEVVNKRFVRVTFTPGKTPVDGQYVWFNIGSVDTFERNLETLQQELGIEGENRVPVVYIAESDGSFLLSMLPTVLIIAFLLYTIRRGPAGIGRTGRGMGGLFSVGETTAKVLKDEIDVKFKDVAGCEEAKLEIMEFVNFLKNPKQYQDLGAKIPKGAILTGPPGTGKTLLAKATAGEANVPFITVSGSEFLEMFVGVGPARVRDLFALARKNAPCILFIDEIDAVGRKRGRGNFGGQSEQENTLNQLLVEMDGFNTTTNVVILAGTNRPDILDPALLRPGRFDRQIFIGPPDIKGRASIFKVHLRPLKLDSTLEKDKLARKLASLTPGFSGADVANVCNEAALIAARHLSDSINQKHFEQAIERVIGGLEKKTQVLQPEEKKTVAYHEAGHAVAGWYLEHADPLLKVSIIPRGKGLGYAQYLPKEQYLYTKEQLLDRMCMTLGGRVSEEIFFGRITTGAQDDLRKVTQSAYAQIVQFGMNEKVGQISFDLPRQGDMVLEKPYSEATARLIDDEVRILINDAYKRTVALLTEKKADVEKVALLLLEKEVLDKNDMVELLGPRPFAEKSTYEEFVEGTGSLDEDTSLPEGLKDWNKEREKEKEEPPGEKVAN
# UniProt Q96CM8: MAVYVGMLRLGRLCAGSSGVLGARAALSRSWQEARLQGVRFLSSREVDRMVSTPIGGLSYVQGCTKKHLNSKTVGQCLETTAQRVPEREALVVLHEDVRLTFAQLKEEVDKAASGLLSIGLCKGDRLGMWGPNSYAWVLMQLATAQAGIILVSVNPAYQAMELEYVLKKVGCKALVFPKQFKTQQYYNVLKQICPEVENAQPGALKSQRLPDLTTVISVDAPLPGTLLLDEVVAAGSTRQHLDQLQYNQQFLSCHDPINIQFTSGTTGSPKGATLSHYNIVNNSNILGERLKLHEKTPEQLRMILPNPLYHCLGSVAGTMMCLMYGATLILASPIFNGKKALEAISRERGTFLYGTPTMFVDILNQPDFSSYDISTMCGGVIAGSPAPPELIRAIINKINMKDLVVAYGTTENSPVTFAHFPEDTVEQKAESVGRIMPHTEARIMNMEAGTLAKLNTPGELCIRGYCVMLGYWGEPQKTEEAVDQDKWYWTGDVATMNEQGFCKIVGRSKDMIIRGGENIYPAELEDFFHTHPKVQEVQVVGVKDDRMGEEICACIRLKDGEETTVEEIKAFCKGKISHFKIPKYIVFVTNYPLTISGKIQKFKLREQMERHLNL
# UniProt P35573: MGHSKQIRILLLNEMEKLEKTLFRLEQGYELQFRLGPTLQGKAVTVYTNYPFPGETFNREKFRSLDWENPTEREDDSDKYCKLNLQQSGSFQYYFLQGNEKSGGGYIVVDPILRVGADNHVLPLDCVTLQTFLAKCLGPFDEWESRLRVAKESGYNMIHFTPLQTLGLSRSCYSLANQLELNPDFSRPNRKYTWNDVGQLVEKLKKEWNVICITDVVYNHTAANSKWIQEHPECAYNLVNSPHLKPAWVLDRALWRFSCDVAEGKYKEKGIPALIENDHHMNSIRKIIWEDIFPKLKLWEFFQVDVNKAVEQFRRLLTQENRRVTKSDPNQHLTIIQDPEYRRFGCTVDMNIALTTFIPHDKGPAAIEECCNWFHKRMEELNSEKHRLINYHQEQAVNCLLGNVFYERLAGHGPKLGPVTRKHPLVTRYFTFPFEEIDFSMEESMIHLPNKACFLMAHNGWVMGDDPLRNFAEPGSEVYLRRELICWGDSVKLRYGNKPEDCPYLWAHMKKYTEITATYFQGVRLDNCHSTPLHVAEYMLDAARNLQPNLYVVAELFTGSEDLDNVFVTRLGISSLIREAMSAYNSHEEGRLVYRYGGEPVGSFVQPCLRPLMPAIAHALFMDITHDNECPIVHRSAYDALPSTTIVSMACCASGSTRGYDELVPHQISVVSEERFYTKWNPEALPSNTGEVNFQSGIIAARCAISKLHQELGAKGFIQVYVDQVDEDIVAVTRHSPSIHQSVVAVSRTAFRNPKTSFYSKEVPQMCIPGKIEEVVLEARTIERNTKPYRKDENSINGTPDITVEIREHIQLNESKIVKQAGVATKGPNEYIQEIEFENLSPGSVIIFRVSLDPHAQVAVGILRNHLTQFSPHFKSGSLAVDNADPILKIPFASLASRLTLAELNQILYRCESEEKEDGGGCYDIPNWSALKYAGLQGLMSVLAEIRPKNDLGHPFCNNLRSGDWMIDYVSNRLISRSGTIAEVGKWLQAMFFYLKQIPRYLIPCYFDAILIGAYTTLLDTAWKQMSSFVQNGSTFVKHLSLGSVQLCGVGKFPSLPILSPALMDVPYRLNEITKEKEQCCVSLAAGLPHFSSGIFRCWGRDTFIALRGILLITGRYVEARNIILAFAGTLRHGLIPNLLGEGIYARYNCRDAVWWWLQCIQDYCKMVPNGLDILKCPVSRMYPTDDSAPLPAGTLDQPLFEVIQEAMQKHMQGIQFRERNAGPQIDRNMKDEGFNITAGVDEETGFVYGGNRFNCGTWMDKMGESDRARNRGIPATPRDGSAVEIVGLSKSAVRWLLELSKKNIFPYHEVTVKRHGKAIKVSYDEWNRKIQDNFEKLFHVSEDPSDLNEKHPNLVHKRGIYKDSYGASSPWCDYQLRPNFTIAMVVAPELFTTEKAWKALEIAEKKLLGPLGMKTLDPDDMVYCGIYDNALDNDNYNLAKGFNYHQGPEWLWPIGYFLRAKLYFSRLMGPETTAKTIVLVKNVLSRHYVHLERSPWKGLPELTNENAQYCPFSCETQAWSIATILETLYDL
# The other results are listed elsewhere or left out.
# Compound: Cc1cc(ccc1-c1ccccc1)C(=O)N1CCCN(CC1)C(=O)CCl [compound 10]
# Assay: probe-labelled cysteine peptide fold change vs DMSO (competition) (log2 fold change); higher = less target engagement (more negative = stronger competition)
# Conditions: THP-1, incubation time: 4 h
# 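Further: competitive profiling in live THP-1 cells: cysteine peptides tagged with an iodoacetamide desthiobiotin (IA-DTB) probe, intensity after compound treatment relative to DMSO-treated cells.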
Target,probe-labelled cysteine peptide fold change (10 µM),probe-labelled cysteine peptide fold change (50 µM)
ADAR_P55265_649_FQYCVAVGAQTFPSVSAPSK (UniProt P55265),0.13,-0.419
ACP1_P24666_91_EDFATFDYILCMDESNLR (UniProt P24666),0.275,0.532
ADAM17_P78536_365_ANSHGGVCPK (UniProt P78536),0.08,0.249
ACSL5_Q9ULC5_322_IVQAVVYSCGAR (UniProt Q9ULC5),-0.154,-0.0691
ADD1_P35611_236_CVVHIHTPAGAAVSAMK (UniProt P35611),0.0419,-0.0683
ACTN1_P12814_476+480_CQKICDQWDNLGALTQKRR (UniProt P12814),0.0377,0.0276
ADNP_Q9H2P0_31_ILSDIGLEYCK (UniProt Q9H2P0),-0.0612,0.0383
ACSL3_O95573_85_SVNSLDGLASVLYPGCDTLDK (UniProt O95573),0.0339,0.289
ADRM1_Q16186_80_TSGNVEDDLIIFPDDCEFK (UniProt Q16186),-0.151,0.0576
AGMAT_Q9BSE5_216_CVDEGLLDCKR (UniProt Q9BSE5),0.167,-0.345
ADRM1_Q16186_121_TDQDEEHCRK (UniProt Q16186),-0.285,0.117
ACSL1_P33121_274_KPKPPAPEDLAVICFTSGTTGNPK (UniProt P33121),-0.0595,0.0335
ACSL5_Q9ULC5_288_CVEHAYEPTPDDVAISYLPLAHMFER (UniProt Q9ULC5),0.179,0.0741
AGFG1_P52594_89_HGNEVCK (UniProt P52594),0.118,0.205
ADGRE2_Q9UHX3_328_LQQHCVASHLLDGLEDVLR (UniProt Q9UHX3),-0.171,-0.096
AFG3L2_Q9Y4W6_525_LASLTPGFSGADVANVCNEAALIAAR (UniProt Q9Y4W6),-0.126,-0.0308
ACSF2_Q96CM8_553_MGEEICACIR (UniProt Q96CM8),-0.00986,-0.39
AFF3_P51826_630_TRPCGNNR (UniProt P51826),0.00478,-0.0261
ACTB_P60709_17_DDDIAALVVDNGSGMCK (UniProt P60709),-0.291,-0.0887
ACTR3_P61158_394_YAVWFGGSMLASTPEFYQVCHTK (UniProt P61158),-0.0129,0.256
AFG3L2_Q9Y4W6_402_NAPCILFIDEIDAVGRK (UniProt Q9Y4W6),0.154,0.067
AGL_P35573_172_SCYSLANQLELNPDFSRPNRK (UniProt P35573),0.0894,0.0496
AFG3L2_Q9Y4W6_313_DVAGCEEAKLEIMEFVNFLK (UniProt Q9Y4W6),-0.324,-0.391
ACTR6_Q9GZN1_210_EDVCYVSQDFYR (UniProt Q9GZN1),-0.0424,0.291
ACTR10_Q9NZ32_388_IPDWCSLNNPPLEMMFDVGK (UniProt Q9NZ32),0.257,-0.546
ADAR_P55265_499_KLTECQLK (UniProt P55265),-0.266,-0.277
AFG3L2_Q9Y4W6_402_KNAPCILFIDEIDAVGR (UniProt Q9Y4W6),-0.0536,-0.451
ACSF2_Q96CM8_122_AASGLLSIGLCK (UniProt Q96CM8),-0.0881,-0.143
